# These are yes or no findings as the source states them, for the method shown. In cells and extracts the contact can be indirect. Some results given as binding are weak or reduced against the parent protein; the word gives no strength. For part of these data: Sequences can lack the tags named with a protein.
# The chains behind the UniProt entries cited, without tags or fusion partners.
# UniProt O15105: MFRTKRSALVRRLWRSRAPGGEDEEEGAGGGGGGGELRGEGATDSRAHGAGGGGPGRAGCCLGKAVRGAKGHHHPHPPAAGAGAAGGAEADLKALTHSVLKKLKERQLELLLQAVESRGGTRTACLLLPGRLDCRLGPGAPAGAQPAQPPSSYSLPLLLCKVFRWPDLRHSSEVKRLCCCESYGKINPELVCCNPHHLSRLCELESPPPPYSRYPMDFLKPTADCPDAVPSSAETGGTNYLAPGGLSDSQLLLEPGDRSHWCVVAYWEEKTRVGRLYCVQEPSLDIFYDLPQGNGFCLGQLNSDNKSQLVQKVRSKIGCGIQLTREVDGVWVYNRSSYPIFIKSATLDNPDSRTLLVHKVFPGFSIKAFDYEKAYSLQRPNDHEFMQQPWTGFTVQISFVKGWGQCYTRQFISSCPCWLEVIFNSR
# UniProt O35253: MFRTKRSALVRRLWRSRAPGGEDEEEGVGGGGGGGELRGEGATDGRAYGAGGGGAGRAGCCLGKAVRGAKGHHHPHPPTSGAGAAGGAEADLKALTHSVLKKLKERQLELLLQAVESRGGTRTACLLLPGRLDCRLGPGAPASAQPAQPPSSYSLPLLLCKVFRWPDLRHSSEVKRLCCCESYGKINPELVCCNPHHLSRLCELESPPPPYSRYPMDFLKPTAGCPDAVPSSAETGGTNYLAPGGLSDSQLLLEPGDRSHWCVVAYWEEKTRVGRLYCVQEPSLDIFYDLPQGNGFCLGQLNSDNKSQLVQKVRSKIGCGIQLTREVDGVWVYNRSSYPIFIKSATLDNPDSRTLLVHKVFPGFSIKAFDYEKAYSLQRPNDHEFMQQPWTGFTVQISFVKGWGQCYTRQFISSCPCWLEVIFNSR
# UniProt Q9HAU4: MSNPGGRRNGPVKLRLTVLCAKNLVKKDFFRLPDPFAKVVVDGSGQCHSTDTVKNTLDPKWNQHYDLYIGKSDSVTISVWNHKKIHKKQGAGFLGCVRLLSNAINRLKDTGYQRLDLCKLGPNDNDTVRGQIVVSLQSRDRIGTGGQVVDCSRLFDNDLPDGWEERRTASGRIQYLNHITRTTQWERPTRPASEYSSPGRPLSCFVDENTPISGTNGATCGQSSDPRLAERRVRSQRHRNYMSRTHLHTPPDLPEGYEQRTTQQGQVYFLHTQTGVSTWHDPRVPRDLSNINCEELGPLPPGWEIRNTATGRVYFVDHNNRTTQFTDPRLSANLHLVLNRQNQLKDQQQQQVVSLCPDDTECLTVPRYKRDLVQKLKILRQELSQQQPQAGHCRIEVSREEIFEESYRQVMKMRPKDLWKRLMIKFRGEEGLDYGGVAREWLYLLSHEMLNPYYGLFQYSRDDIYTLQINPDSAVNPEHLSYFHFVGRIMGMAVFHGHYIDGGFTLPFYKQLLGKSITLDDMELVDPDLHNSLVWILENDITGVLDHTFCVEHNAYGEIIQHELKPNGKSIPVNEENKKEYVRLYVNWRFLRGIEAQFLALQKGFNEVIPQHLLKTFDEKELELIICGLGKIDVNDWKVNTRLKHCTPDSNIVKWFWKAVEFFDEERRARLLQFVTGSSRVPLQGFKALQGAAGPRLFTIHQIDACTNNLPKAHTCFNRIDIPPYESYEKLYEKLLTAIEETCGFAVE
# B1: Prominin-1 (PROM1), endogenous in mouse liver (protein, UniProt O54990 20-867)
# chain: EGQPAFHNTPGAMNYELPTTKYETQDTFNAGIVGPLYKMVHIFLSVVQPNDFPLDLIKKLIQNKKFDISVDSKEPEIIVLALKIALYEIGVLICAILGLLFIILMPLVGCFFCMCRCCNKCGGEMHQRQKQNAPCRRKCLGLSLLVICLLMSLGIIYGFVANQQTRTRIKGTQKLAKSNFRDFQTLLTETPKQIDYVVEQYTNTKNKAFSDLDGIGSVLGGRIKDQLKPKVTPVLEEIKAMATAIKQTKDALQNMSSSLKSLQDAATQLNTNLSSVRNSIENSLSSSDCTSDPASKICDSIRPSLSSLGSSLNSSQLPSVDRELNTVTEVDKTDLESLVKRGYTTIDEIPNTIQNQTVDVIKDVKNTLDSISSNIKDMSQSIPIEDMLLQVSHYLNNSNRYLNQELPKLEEYDSYWWLGGLIVCFLLTLIVTFFFLGLLCGVFGYDKHATPTRRGCVSNTGGIFLMAGVGFGFLFCWILMILVVLTFVVGANVEKLLCEPYENKKLLQVLDTPYLLKEQWQFYLSGMLFNNPDINMTFEQVYRDCKRGRGIYAAFQLENVVNVSDHFNIDQISENINTELENLNVNIDSIELLDNTGRKSLEDFAHSGIDTIDYSTYLKETEKSPTEVNLLTFASTLEAKANQLPEGKPKQAFLLDVQNIRAIHQHLLPPVQQSLNTLRQSVWTLQQTSNKLPEKVKKILASLDSVQHFLTNNVSLIVIGETKKFGKTILGYFEHYLHWVFYAITEKMTSCKPMATAMDSAVNGILCGYVADPLNLFWFGIGKATVLLLPAVIIAIKLAKYYRRMDSEDVYDDVETVPMKNLEIGSNGYHKDHLYGVHNPVMTSPSRY
# B2: PROM1-FLAG (protein, UniProt O43490 20-865)
# chain: GGQPSSTDAPKAWNYELPATNYETQDSHKAGPIGILFELVHIFLYVVQPRDFPEDTLRKFLQKAYESKIDYDKPETVILGLKIVYYEAGIILCCVLGLLFIILMPLVGYFFCMCRCCNKCGGEMHQRQKENGPFLRKCFAISLLVICIIISIGIFYGFVANHQVRTRIKRSRKLADSNFKDLRTLLNETPEQIKYILAQYNTTKDKAFTDLNSINSVLGGGILDRLRPNIIPVLDEIKSMATAIKETKEALENMNSTLKSLHQQSTQLSSSLTSVKTSLRSSLNDPLCLVHPSSETCNSIRLSLSQLNSNPELRQLPPVDAELDNVNNVLRTDLDGLVQQGYQSLNDIPDRVQRQTTTVVAGIKRVLNSIGSDIDNVTQRLPIQDILSAFSVYVNNTESYIHRNLPTLEEYDSYWWLGGLVICSLLTLIVIFYYLGLLCGVCGYDRHATPTTRGCVSNTGGVFLMVGVGLSFLFCWILMIIVVLTFVFGANVEKLICEPYTSKELFRVLDTPYLLNEDWEYYLSGKLFNKSKMKLTFEQVYSDCKKNRGTYGTLHLQNSFNISEHLNINEHTGSISSELESLKVNLNIFLLGAAGRKNLQDFAACGIDRMNYDSYLAQTGKSPAGVNLLSFAYDLEAKANSLPPGNLRNSLKRDAQTIKTIHQQRVLPIEQSLSTLYQSVKILQRTGNGLLERVTRILASLDFAQNFITNNTSSVIIEETKKYGRTIIGYFEHYLQWIEFSISEKVASCKPVATALDTAVDVFLCSYIIDPLNLFWFGIGKATVFLLPALIFAVKLAKYYRRMDSEDVYDDVETIPMKNMENGNNGYHKDHVYGIHNPVMTSPSQH
# Assays:
# SMAD7-HA [1] = molecular target: SMAD7-HA (UniProt O15105); assay: co-IP; HEK293T cells transfected with SMAD7-HA, Myc-SMURF2 and different amounts of PROM1-FLAG (0, 2 and 4 µg); immunoprecipitation and immunoblotting
# [2] = molecular target: SMAD7, endogenous in mouse liver (mouse (endogenous in liver)) (UniProt O35253); assay: co-IP; reciprocal endogenous immunoprecipitation from livers of mice subjected to BDL for 1 week; lysates (500 µg of protein) incubated with specific antibodies overnight, then Protein A- or Protein G-agarose beads for 3 h; immunoblotting
# SMAD7-HA [3] = molecular target: SMAD7-HA (UniProt O15105); assay: co-IP; HEK293T cells transfected with PROM1-FLAG and SMAD7-HA or their truncated mutants; whole-cell lysates (500 µg of protein) incubated with specific antibodies overnight, then Protein A- or Protein G-agarose beads for 3 h; immunoblotting
molecule,measurement,setting,value
Myc-SMURF2 (from UniProt Q9HAU4 1-748) (enzyme),binding,SMAD7-HA [1],binds
B1,binding,[2],binds
B2,binding,SMAD7-HA [3],binds
